Reference: US10221137B2, “Herbicidal phenylpyridines” (BASF SE, priority 2015, dated 2019)
Some entries share one result that the patent states for a list of compounds.

What was measured:
Assay in all cases: greenhouse experiment, post-emergence treatment
Type in all cases: in vivo
Conditions in all cases: application rate of 16 g/ha, post-emergence method; scale from 0 to 100
[1] = system: Chenopodium album
Description: (§1) The seeds of the test plants were sown separately for each species. For the post-emergence treatment, the test plants were first grown to a height of 3 to 15 cm, depending on the plant habit, and only then treated with the active ingredients which had been suspended or emulsified in water. For this purpose, the test plants were either sown directly and grown in the same containers, or they were first grown separately as seedlings and transplanted into the test containers a few days prior to treatment. Depending on the species, the plants were kept at 10-25° C. or 20-35° C., respectively. The test period extended over 2 to 4 weeks. During this time, the plants were tended, and their response to the individual treatments was evaluated. Evaluation was carried out using a scale from 0 to 100. 100 means no emergence of the plants, or complete destruction of at least the aerial moieties, and 0 means no damage, or normal course of growth. A good herbicidal activity is given at values of at least 70 and a very good herbicidal activity is given at values of at least 85. The plants used in the greenhouse experiments were of the following species: [table]

[2] = system: Amaranthus retroflexus
Description: as §1

[3] = system: Setaria viridis
Description: as §1

SMILES	herbicidal activity against Chenopodium album [1]	herbicidal activity against Amaranthus retroflexus [2]	herbicidal activity against Setaria viridis [3]
CNC(=O)C(OC)Oc1cc(-c2ncc(C(F)(F)F)cc2Cl)c(F)cc1Cl (stereo not drawn) [Example 38]	very good herbicidal activity (a very good herbicidal activity is given at values of at least 85)	very good herbicidal activity (a very good herbicidal activity is given at values of at least 85)	very good herbicidal activity (a very good herbicidal activity is given at values of at least 85)
C#CCNC(=O)C(OC)Oc1cc(-c2ncc(C(F)(F)F)cc2Cl)c(F)cc1Cl (stereo not drawn) [Example 39]	very good herbicidal activity (a very good herbicidal activity is given at values of at least 85)	very good herbicidal activity (a very good herbicidal activity is given at values of at least 85)	very good herbicidal activity (a very good herbicidal activity is given at values of at least 85)
COC(Oc1cc(-c2ncc(C(F)(F)F)cc2Cl)c(F)cc1Cl)C(=O)NS(C)(=O)=O (stereo not drawn) [Example 40]	very good herbicidal activity (a very good herbicidal activity is given at values of at least 85)	very good herbicidal activity (a very good herbicidal activity is given at values of at least 85)	very good herbicidal activity (a very good herbicidal activity is given at values of at least 85)
COC(Oc1cc(-c2ncc(C(F)(F)F)cc2Cl)c(F)cc1Cl)C(=O)NS(=O)(=O)N(C)C1CC1 (stereo not drawn) [Example 41]	very good herbicidal activity (a very good herbicidal activity is given at values of at least 85)	very good herbicidal activity (a very good herbicidal activity is given at values of at least 85)	very good herbicidal activity (a very good herbicidal activity is given at values of at least 85)
COc1cccc(CNC(=O)C(OC)Oc2cc(-c3ncc(C(F)(F)F)cc3Cl)c(F)cc2Cl)c1 (stereo not drawn) [Example 43]	very good herbicidal activity (a very good herbicidal activity is given at values of at least 85)	very good herbicidal activity (a very good herbicidal activity is given at values of at least 85)	very good herbicidal activity (a very good herbicidal activity is given at values of at least 85)
COC(Oc1cc(-c2ncc(C(F)(F)F)cc2Cl)c(F)cc1Cl)C(=O)NCc1ccccc1 (stereo not drawn) [Example 45]	very good herbicidal activity (a very good herbicidal activity is given at values of at least 85)	very good herbicidal activity (a very good herbicidal activity is given at values of at least 85)	very good herbicidal activity (a very good herbicidal activity is given at values of at least 85)
COCCCNC(=O)C(OC)Oc1cc(-c2ncc(C(F)(F)F)cc2Cl)c(F)cc1Cl (stereo not drawn) [Example 46]	very good herbicidal activity (a very good herbicidal activity is given at values of at least 85)	very good herbicidal activity (a very good herbicidal activity is given at values of at least 85)	very good herbicidal activity (a very good herbicidal activity is given at values of at least 85)
COCCNC(=O)C(OC)Oc1cc(-c2ncc(C(F)(F)F)cc2Cl)c(F)cc1Cl (stereo not drawn) [Example 47]	very good herbicidal activity (a very good herbicidal activity is given at values of at least 85)	very good herbicidal activity (a very good herbicidal activity is given at values of at least 85)	very good herbicidal activity (a very good herbicidal activity is given at values of at least 85)
COC(Oc1cc(-c2ncc(C(F)(F)F)cc2Cl)c(F)cc1Cl)C(=O)NCC1CC1 (stereo not drawn) [Example 48]	very good herbicidal activity (a very good herbicidal activity is given at values of at least 85)	very good herbicidal activity (a very good herbicidal activity is given at values of at least 85)	very good herbicidal activity (a very good herbicidal activity is given at values of at least 85)
C=CCNC(=O)C(OC)Oc1cc(-c2ncc(C(F)(F)F)cc2Cl)c(F)cc1Cl (stereo not drawn) [Example 49]	very good herbicidal activity (a very good herbicidal activity is given at values of at least 85)	very good herbicidal activity (a very good herbicidal activity is given at values of at least 85)	very good herbicidal activity (a very good herbicidal activity is given at values of at least 85)
CCNC(=O)C(OC)Oc1cc(-c2ncc(C(F)(F)F)cc2Cl)c(F)cc1Cl (stereo not drawn) [Example 50]	very good herbicidal activity (a very good herbicidal activity is given at values of at least 85)	very good herbicidal activity (a very good herbicidal activity is given at values of at least 85)	very good herbicidal activity (a very good herbicidal activity is given at values of at least 85)
C#CCN(C)C(=O)C(OC)Oc1cc(-c2ncc(C(F)(F)F)cc2Cl)c(F)cc1Cl (stereo not drawn) [Example 56]	very good herbicidal activity (a very good herbicidal activity is given at values of at least 85)	very good herbicidal activity (a very good herbicidal activity is given at values of at least 85)	very good herbicidal activity (a very good herbicidal activity is given at values of at least 85)
COCCN(C)C(=O)C(OC)Oc1cc(-c2ncc(C(F)(F)F)cc2Cl)c(F)cc1Cl (stereo not drawn) [Example 57]	very good herbicidal activity (a very good herbicidal activity is given at values of at least 85)	very good herbicidal activity (a very good herbicidal activity is given at values of at least 85)	very good herbicidal activity (a very good herbicidal activity is given at values of at least 85)
COC(Oc1cc(-c2ncc(C(F)(F)F)cc2Cl)c(F)cc1Cl)C(=O)N1CCCCC1 (stereo not drawn) [Example 59]	very good herbicidal activity (a very good herbicidal activity is given at values of at least 85)	very good herbicidal activity (a very good herbicidal activity is given at values of at least 85)	very good herbicidal activity (a very good herbicidal activity is given at values of at least 85)
COC(Oc1cc(-c2ncc(C(F)(F)F)cc2Cl)c(F)cc1Cl)C(=O)OC1CCOCC1 (stereo not drawn) [Example 60]	very good herbicidal activity (a very good herbicidal activity is given at values of at least 85)	very good herbicidal activity (a very good herbicidal activity is given at values of at least 85)	very good herbicidal activity (a very good herbicidal activity is given at values of at least 85)
